Reference: the supplement of paper PMC3545927
Only a part is listed here, and it is no random draw.

The chains behind the UniProt entries cited, without tags or fusion partners.
furin, P09958, UniProt P09958, whole entry: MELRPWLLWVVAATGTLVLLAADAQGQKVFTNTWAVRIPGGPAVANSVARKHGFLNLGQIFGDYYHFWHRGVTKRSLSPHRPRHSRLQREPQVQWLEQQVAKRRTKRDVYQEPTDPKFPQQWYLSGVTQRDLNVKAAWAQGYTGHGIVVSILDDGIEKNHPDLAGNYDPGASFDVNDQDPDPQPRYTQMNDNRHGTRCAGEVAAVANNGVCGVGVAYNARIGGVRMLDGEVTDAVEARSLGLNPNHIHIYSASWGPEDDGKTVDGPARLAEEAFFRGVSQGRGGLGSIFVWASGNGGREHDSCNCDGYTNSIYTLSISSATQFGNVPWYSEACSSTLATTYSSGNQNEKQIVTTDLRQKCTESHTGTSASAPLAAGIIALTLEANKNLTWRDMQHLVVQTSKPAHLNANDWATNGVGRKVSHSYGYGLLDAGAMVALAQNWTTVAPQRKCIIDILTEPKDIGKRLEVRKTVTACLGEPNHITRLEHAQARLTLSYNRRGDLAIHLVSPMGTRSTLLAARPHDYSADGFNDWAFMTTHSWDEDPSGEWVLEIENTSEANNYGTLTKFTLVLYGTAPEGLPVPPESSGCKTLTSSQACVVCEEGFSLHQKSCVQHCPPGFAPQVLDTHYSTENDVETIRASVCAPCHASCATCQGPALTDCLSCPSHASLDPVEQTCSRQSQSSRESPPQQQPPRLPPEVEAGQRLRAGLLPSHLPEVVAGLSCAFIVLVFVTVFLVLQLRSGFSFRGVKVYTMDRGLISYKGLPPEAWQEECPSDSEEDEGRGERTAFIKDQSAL

Biological target: furin, P09958
Test: furin cleavage Z-score vs untreated control; higher = more cleavage, active = 3.5 or more, inactive = 1 or less, 8 variable residues between constant flanks
Outline: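 Furin-free reactions served as the baseline for the cleavage Z-score, which is the log read count lowess-adjusted and scaled by median absolute deviation. Counts came from released DNA, adapter-tagged by PCR and sequenced. Purified furin had cut 8-mer peptides fused to a cDNA oligonucleotide on magnetic beads during 7.5, 15 or 30 min at 1:10 enzyme:substrate.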
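Also: purified furin at 1:10 enzyme:substrate in 50 mM HEPES pH 7.5.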

| Sequence | furin cleavage Z-score (7.5 min) | furin cleavage Z-score (15 min) | furin cleavage Z-score (30 min) |
| --- | --- | --- | --- |
| CASTQRLRRGAGNASASA [FS-1169] | 2.79 | 2.27 | 2.38 |
| CAVGPRTCRNAGNASASA [HC1184] | 2.39 | 3 | 2.94 |
| CALTPCSAHLAGNASASA [HC2465] | 2.29 | 1.86 | 1.34 |
| CAGKRRSRRQAGNASASA [FS-1456] | active: 9.9 | active: 10.6 | active: 6.67 |
| CAGTHRIMRDAGNASASA [FS-437] | 1.29 | 1.53 | 2.69 |
| CAPARRARRGAGNASASA [FS-470] | 3.47 | 2.74 | 2.76 |
| CAKRLRRRREAGNASASA [FS-1224] | active: 6.7 | active: 5.88 | active: 4.7 |
| CAKRRRSSKDAGNASASA [FS-344] | 2.04 | 3.21 | 3.03 |
| CAPGYPWPLYAGNASASA [HC200] | 2.88 | 1.98 | 1.47 |
| CAPSKRGNSTAGNASASA [FS-2877] | inactive: -0.745 | inactive: -0.0005 | inactive: 0.164 |
